Experimental data: patent publication US20250092124A1
Residue numbers refer to the chain shown, from its start. These are yes or no findings as the source states them, for the method shown. Some entries that bind do so weakly or less than the wild type. For some assays here: Tags and fused reporters may be left off the sequences shown. Values belong to the binder of their own block, whether it stands above or below them.

Protein sequences, listed by entry. Tags and fused reporters are not part of them. Lines headed by an entry give the natural chain unless they say otherwise; changes in a name come on top. Residues count along the entry.
UniProt G7PWZ3, residues 197-308: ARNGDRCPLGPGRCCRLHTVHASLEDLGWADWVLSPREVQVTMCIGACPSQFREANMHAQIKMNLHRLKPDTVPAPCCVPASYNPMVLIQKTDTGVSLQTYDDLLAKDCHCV
UniProt Q9Z0J7: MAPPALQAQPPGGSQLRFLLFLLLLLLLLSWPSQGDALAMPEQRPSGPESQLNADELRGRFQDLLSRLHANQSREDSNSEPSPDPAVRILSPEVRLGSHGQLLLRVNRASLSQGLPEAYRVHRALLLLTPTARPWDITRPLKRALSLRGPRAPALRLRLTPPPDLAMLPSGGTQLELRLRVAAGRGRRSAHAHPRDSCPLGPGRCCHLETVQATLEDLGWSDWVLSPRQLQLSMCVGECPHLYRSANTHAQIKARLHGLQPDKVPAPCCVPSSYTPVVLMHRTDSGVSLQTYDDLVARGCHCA

Legend:
Assay in all cases: ELISA (figure legend)
[1] = molecular target: T1, fusion protein comprising the extracellular region of human GDF15 protein and human IgG1-FC (human) (UniProt Q99988)
T1 sequence (looked up): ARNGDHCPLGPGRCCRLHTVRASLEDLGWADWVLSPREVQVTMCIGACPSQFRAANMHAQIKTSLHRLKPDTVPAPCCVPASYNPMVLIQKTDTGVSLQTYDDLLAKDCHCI

[2] = molecular target: T2, fusion protein comprising the extracellular region of monkey GDF15 protein and human IgG1-FC (monkey (cyno); human) (UniProt G7PWZ3)
T2 sequence (looked up): T1 sequence (looked up) with H6R, R21H, A54E, T63M, S64N, I112V

[3] = molecular target: T3, cynoGDF15-mFC (monkey (cyno); mouse) (UniProt G7PWZ3+Q9Z0J7)
T3 sequence (looked up): T1 sequence (looked up) with H6R, R21H, A54E, T63M, S64N, I112V

B1: A3 (murine anti-34G9) (antibody, V domains shown)
VH: QVQLKESGPGILQPSQTLSLTCSFSGFSLNTAGMTVGWIRQPSGKGLEWLAHIWWNDDKYYNPALKSRLTISKDTSNNQIFLEIASVVTADTATYYCTRIATMNYAMDYWGQGTSVTVSS
VL: DIVMTQAPASLAVSLGQRATISCRASQSVSTSSFSYMHWYQQKPGQPPKLLIKYASNLESGVPARFSGSGSGTDFTLNIHPVEEEDTATYYCQHSWEIPYTFGGGTKLEIK
binding [1]: binds
binding [2]: binds

B5: A4 (murine anti-2A2) (antibody, V domains shown)
VH: QVTLKESGPGILQPSQTLSLTCSFSGFSLTTSGMGVDWIRQSSGKGLEWLAHIYWDDDKRYNPSLKSRLTISKDTSSNQVFLKITSVDTADTATYYCARRAWDAMDYWGQGTSFTVSS
VL: DIVMTQAQKFMSTSVGDRVSVTCKARQNVGTNVAWYQQKPGQSPKALIYSASYRYSGVPDRFTGSGSGTDFTLTISNVQSEDLAEYFCQQYNSYPYTFGGGTKLEIK
binding [1]: binds
binding [2]: binds

B7: A1 (murine anti-53E5) (antibody, V domains shown)
VH: QVQLKESGPGILQPSQTLSLTCSFSGFSLSTSGMGVGWIRQPSGKGLEWLAHILWDDVKRYNPALKSRLTISKDSSNSQIFLKIASVDTADTATYYCVQMAWDWFAYWGQGTLVTVSA
VL: DIVMTQAQKFMSTSVEDRVSVTCKASQNVDTNVAWYQQKPGQSPKALIYSASYRSSGVPDRFTGSGSGTDFTLTISNVQSEDLAEYFCQQYHSYPTFGGGTKLEIK
binding [1]: binds
binding [2]: binds

B8: A2 (murine anti-53A8) (antibody, V domains shown)
VH: B7 VH with L54R, S75T, N77S, V98A
VL: B7 VL with E16G, N32D, S55Y, S76T, Q89H, H92N
binding [1]: binds
binding [2]: binds

The next lines start with the values.

binding [3]: binds
B2: 53E5(hz) (antibody, human IgG1, kappa, V domains shown)
VH: QVQLQESGPGLVKPSETLSLTCTFSGFSLSTSGMGVGWIRQPPGKGLEWLAHILWDDVKRYNPALKSRLTISKDSSKSQISLKLSSVTAADTAVYYCVQMAWDWFAYWGQGTTVTVSS
VL: DIQMTQSPSSLSASVGDRVTITCKASQNVDTNVAWYQQKPGQSPKALIYSASYRSSGVPSRFSGSGSGTDFTLTISSLQPEDFATYYCQQYHSYPTFGQGTRLEIKR

binding [3]: binds
B3: 53A8(hz) (antibody, human IgG1, kappa, V domains shown)
VH: B2 VH with L54R, S75T, V98A
VL: B2 VL with N32D, S55Y, Q89H, H92N

binding [1]: binds
binding [2]: binds
B4: A5 (murine anti-50G3) (antibody, V domains shown)
VH: QVTLKESGPGILKPSQTLSLTCSFSGFSLSTSGMGVGWIRQPSGKGLEWLAHIWWNDDKYYNPSLKSHLTISKDTSRNQVFLMITSVDTADTATYYCARGAYDFFDYWGQGTTLTVSS
VL: B5 VL with K9N, R26S, G30D, E81D, E85D, S93T

binding [1]: binds
binding [2]: binds
B6: A6 (murine anti-53D10) (antibody, V domains shown)
VH: QVTLKESGPGIVQPSQPFRLTCTFSGFSLSTSGIGITWIRQPSGKGLEWLATIWWDDDNRYNPSLKSRLTVSKDTSNNQAFLNIITVETADTAIYYCVQSAWDWFAYWGQGTLVTVSA
VL: B5 VL with A7S, R26S, P40S, Y55N, Q79E, Y94H, Y96V
